Results published in article doi:10.1101/2021.10.20.465144.
Results are given in words; binding and its absence hold for the method and conditions named. Binding seen in cells or lysates may run through a third protein. For some assays here: A result given as binding can be weak or reduced; the word gives no strength. For some assays here: Where a sequence is shown, tags or fusion partners need not be part of it.

By UniProt entry, the sequences of proteins in these tests, tags left out.
UniProt Q8TDY2: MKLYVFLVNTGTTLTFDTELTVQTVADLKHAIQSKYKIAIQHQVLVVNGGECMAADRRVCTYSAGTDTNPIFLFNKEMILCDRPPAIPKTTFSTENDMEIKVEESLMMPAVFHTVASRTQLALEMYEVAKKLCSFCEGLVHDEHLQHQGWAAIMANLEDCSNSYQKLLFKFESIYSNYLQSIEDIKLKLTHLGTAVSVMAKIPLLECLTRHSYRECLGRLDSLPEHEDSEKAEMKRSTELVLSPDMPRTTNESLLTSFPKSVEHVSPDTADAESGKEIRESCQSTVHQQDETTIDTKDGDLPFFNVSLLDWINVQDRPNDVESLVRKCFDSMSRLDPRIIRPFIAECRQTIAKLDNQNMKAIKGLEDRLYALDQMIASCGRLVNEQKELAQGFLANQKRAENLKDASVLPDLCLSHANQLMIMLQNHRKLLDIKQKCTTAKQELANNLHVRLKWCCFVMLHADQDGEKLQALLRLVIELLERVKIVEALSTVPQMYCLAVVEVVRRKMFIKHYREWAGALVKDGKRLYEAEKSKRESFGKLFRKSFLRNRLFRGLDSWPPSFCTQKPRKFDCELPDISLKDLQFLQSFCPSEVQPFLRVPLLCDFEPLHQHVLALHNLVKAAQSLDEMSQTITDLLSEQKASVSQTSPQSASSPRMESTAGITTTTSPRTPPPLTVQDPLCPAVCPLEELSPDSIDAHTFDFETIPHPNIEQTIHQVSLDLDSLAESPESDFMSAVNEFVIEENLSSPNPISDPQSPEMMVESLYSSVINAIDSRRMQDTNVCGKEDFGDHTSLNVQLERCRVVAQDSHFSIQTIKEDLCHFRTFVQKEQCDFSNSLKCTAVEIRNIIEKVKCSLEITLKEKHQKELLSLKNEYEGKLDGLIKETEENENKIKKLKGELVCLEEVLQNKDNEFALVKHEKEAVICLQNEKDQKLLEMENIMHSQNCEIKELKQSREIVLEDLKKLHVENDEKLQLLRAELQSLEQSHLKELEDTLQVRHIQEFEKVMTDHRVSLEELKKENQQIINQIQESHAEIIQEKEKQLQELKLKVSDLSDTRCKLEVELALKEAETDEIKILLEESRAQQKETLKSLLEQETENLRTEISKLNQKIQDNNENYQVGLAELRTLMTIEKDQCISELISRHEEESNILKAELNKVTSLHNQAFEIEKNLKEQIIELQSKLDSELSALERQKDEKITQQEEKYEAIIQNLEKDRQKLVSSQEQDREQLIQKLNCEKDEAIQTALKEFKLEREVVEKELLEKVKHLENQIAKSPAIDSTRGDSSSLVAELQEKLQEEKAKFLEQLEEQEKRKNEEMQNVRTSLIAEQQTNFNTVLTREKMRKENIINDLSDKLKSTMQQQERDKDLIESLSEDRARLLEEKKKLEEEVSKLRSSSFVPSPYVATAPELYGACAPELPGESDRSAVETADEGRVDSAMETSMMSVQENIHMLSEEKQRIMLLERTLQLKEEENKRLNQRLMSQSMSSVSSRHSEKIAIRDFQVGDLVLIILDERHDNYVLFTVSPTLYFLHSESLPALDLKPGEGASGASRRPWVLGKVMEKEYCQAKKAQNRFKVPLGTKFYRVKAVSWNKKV

Experiments:
[1] = target: FLAG-QPD-DNAJB12 (DNAJB12 mutant with dominant-negative HSP70 interaction domain) (UniProt Q9NXW2); experiment: co-IP
FLAG-DNAJB12 (WT) = target: T1, FLAG-DNAJB12 (WT) (UniProt Q9NXW2); experiment: co-IP
T1 sequence: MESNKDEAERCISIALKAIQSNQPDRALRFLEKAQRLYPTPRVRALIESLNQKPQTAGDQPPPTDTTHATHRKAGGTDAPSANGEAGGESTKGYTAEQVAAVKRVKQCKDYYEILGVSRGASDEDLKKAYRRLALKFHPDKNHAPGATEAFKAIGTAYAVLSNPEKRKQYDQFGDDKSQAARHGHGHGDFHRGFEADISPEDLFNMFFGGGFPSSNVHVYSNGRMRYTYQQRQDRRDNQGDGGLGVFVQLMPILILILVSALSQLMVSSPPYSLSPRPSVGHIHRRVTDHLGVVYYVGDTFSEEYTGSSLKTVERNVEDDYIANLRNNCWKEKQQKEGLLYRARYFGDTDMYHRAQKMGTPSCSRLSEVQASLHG

binding [1]	binding (FLAG-DNAJB12 (WT))	Substance
binds		FIP200 (focal adhesion kinase family interacting protein of 200 kD) (from UniProt Q8TDY2 1-1594)
	no binding	calnexin (in COS-7 cells)
